No constants are given. Whether binding was seen depends on the method and setting. In cells and extracts the contact can be indirect. Some results given as binding are weak or reduced against the parent protein; the word gives no strength.

Amino acid sequences for entries named in this document (tags omitted). A change or cut given only in a name is not applied to a line headed by its entry. Chains listed by the source or under a name are the forms on record and can include a tag or linker.
UniProt Q00987: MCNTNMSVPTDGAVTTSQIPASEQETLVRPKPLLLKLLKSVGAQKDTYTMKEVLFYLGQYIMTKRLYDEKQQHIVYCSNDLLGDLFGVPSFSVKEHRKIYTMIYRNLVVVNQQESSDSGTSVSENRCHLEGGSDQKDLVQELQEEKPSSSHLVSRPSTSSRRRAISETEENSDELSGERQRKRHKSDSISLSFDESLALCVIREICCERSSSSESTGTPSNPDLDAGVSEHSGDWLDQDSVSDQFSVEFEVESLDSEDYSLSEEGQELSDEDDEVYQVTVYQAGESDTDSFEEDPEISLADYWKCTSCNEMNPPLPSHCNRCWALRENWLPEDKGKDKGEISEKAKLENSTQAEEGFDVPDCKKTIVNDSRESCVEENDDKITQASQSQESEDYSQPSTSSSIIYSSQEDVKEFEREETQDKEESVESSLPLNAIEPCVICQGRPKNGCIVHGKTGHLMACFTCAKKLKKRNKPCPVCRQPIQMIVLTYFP
UniProt P06748: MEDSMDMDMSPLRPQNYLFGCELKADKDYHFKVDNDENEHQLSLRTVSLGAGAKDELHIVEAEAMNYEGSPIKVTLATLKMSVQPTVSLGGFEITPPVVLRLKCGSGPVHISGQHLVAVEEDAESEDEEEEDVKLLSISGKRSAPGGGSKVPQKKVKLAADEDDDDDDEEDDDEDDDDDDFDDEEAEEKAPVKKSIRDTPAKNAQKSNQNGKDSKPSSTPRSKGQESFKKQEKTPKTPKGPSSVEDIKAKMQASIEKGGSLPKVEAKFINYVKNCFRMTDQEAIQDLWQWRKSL
FLAG-NPM1 W288/290A mutant (P06748, form named): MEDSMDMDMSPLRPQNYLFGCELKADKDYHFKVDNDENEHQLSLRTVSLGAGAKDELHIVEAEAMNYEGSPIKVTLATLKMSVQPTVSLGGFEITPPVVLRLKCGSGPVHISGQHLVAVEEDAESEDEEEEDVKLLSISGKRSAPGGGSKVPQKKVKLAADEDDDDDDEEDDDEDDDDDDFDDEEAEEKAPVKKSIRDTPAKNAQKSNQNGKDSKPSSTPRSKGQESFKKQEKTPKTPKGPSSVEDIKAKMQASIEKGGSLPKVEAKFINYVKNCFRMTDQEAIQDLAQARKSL

The target of this assay is Human double minute 2 homologue (HDM2) (human (endogenous in U2OS)) (UniProt Q00987). Put plainly: co-IP; antibody against HDM2 and Protein A/G-Agarose on lysates of NPM1-silenced U2OS cells with FLAG-NPM1 WT, W288/290A or C275S added back, after Act.D treatment; lysis buffer 50 mM Tris-HCl pH 7.4, 1% Triton X-100, 150 mM NaCl, 1 mM EDTA, 4 °C; western blot. (In general: Immunoblotting shows a protein as a band on a membrane.)
As to “FLAG-NPM1 C275S mutant (from UniProt P06748 1-294)”, the binding entry is recorded as “no binding”.
The result for “FLAG-NPM1 W288/290A mutant (from UniProt P06748 1-294)” reads “binds”.
The result for “FLAG-NPM1 WT (nucleophosmin, B23) (from UniProt P06748 1-294)” reads “binds”.
